Measurements taken from patent US10525115B2 (Immatics Biotechnologies GmbH, priority 2014, dated 2020).

Experiments:
[1] = system: primary AML samples; test: HLA class I ligandome analysis (W6/32 immunoaffinity purification, LC-MS/MS) of primary AML samples; design: species or system human; conditions: for Number of positive AMLs: AML patients (n=15); for rep. frequency: representation frequency in AML patients (n=15); for Number of positive AMLs [rep. frequency]: representation frequency of the source protein (LiTAA) in AML patients (n=15)
[2] = system: cancer tissues in comparison to non-cancerous tissues and organs; test: Presentation profile / over-presentation by label-free LC-MS (XPRESIDENT), tumor versus normal tissues, other proliferative diseases; design: species or system human; conditions: other proliferative diseases / organs (other than AML) that over- or exclusively present the peptide; Table 5
[3] = HLA class I ligandome, count for the HLA ligand (LiTAP) or, on protein lines, for the source protein (LiTAA)

196 (EAIKALEV; listed as Homo sapiens) [compound 196]
Number of positive AMLs [1, 3]: 1 | Proliferative disease and location thereof [2]: stomach, metastatic, lung, neuroendocrine carcinoma

263 (IEDSRVYEL; listed as Homo sapiens) [compound 263]
Number of positive AMLs ([1]; HLA ligand (LiTAP)): 3 | Proliferative disease and location thereof [2]: stomach, metastatic, non-Hodgkin's lymphoma

300 (VHESPALILLF; listed as Homo sapiens) [compound 300]
Number of positive AMLs ([1]; HLA ligand (LiTAP)): 1 | Proliferative disease and location thereof [2]: kidney, clear cell renal cell carcinoma, lipoma

83 (RLLESVVVL; listed as Homo sapiens) [compound 83]
Number of positive AMLs [1, 3]: 1 | Proliferative disease and location thereof [2]: lung, non-small cell lung carcinoma, spleen, chronic myeloid leukemia

155 (EELQLIRQA; listed as Homo sapiens) [compound 155]
Number of positive AMLs [1, 3]: 1 | Proliferative disease and location thereof [2]: kidney, clear cell renal cell carcinoma, kidney, polycystic kidney disease

82 (SESLPVRTL; listed as Homo sapiens) [compound 82]
Number of positive AMLs [1, 3]: 1 | Proliferative disease and location thereof [2]: colon or rectum, metastatic renal cell carcinoma

60 (KEYIPPLIW; listed as Homo sapiens) [compound 60]
Number of positive AMLs [1, 3]: 1 | Proliferative disease and location thereof [2]: stomach, adenocarcinoma, pancreas, adenocarcinoma

303 (SPASKTTL; listed as Homo sapiens) [compound 303]
Number of positive AMLs ([1]; HLA ligand (LiTAP)): 1 | Proliferative disease and location thereof [2]: stomach, adenocarcinoma, rectum, adenocarcinoma

140 (ENEEKLKEL; listed as Homo sapiens) [compound 140]
Number of positive AMLs [1, 3]: 1 | Proliferative disease and location thereof [2]: stomach, metastatic, lung, large cell carcinoma

197 (EVASAKQSVKY; listed as Homo sapiens) [compound 197]
Number of positive AMLs [1, 3]: 1 | Proliferative disease and location thereof [2]: stomach, metastatic, lung, neuroendocrine carcinoma

63 (ALLPHLYTL; listed as Homo sapiens) [compound 63]
Number of positive AMLs [1, 3]: 2

RHOT1
Number of positive AMLs ([1]; source protein (LiTAA)): 3 | rep. frequency ([1]; source protein (LiTAA)): [20.0%]

87 (REMENYEKI; listed as Homo sapiens) [compound 87]
Number of positive AMLs [1, 3]: 2

58 (YLLESVNKL; listed as Homo sapiens) [compound 58]
Number of positive AMLs [1, 3]: 3

151 (RVMPSSFFL; listed as Homo sapiens) [compound 151]
Number of positive AMLs [1, 3]: 1

ZKSCAN8
Number of positive AMLs [1, 3]: 4 | Number of positive AMLs [rep. frequency] [1]: [26.7%]

DMD
Number of positive AMLs [1, 3]: 3 | Number of positive AMLs [rep. frequency] [1]: [20.0%]

219 (IEHVFVTDV; listed as Homo sapiens) [compound 219]
Number of positive AMLs [1, 3]: 2

ZNF638
Number of positive AMLs [1, 3]: 3 | Number of positive AMLs [rep. frequency] [1]: [20.0%]

136 (HHILADVSL; listed as Homo sapiens) [compound 136]
Number of positive AMLs [1, 3]: 1

89 (KTYTKSSHLK; listed as Homo sapiens) [compound 89]
Number of positive AMLs [1, 3]: 4

ZNF805
Number of positive AMLs [1, 3]: 3 | Number of positive AMLs [rep. frequency] [1]: [20.0%]

26 (EEVGDFIQRY; listed as Homo sapiens) [compound 26]
Number of positive AMLs [1, 3]: 1

KLF2
Number of positive AMLs [1, 3]: 4 | Number of positive AMLs [rep. frequency] [1]: [26.7%]

232 (YQRETPQV; listed as Homo sapiens) [compound 232]
Number of positive AMLs [1, 3]: 1

NBN
Number of positive AMLs [1, 3]: 3 | Number of positive AMLs [rep. frequency] [1]: [20.0%]

22 (TTNHPINPK; listed as Homo sapiens) [compound 22]
Proliferative disease and location thereof [2]: malignant fibrous histiocytoma

137 (YPSEKRGEL; listed as Homo sapiens) [compound 137]
Number of positive AMLs [1, 3]: 1

ERCC1
Number of positive AMLs [1, 3]: 3 | Number of positive AMLs [rep. frequency] [1]: [20.0%]

54 (AVIEAEKIAQV; listed as Homo sapiens) [compound 54]
Number of positive AMLs [1, 3]: 2

SDAD1
Number of positive AMLs ([1]; source protein (LiTAA)): 3 | rep. frequency ([1]; source protein (LiTAA)): [20.0%]

27 (EVGDFIQRY; listed as Homo sapiens) [compound 27]
Number of positive AMLs [1, 3]: 4

90 (EIIEKNFDY; listed as Homo sapiens) [compound 90]
Number of positive AMLs [1, 3]: 3

231 (ESAALIHHY; listed as Homo sapiens) [compound 231]
Number of positive AMLs [1, 3]: 2

283 (KLMAMFLEY; listed as Homo sapiens) [compound 283]
Number of positive AMLs ([1]; HLA ligand (LiTAP)): 1

OPRL1
Number of positive AMLs [1, 3]: 4 | Number of positive AMLs [rep. frequency] [1]: [26.7%]

TOP1MT (KLQEQLAQL)
Number of positive AMLs ([1]; source protein (LiTAA)): 3 | rep. frequency ([1]; source protein (LiTAA)): [20.0%]

GOLGA7
Number of positive AMLs ([1]; source protein (LiTAA)): 3 | rep. frequency ([1]; source protein (LiTAA)): [20.0%]

64 (HVAGETVAR; listed as Homo sapiens) [compound 64]
Number of positive AMLs [1, 3]: 1

APLP2 (SLLYKVPYV)
Number of positive AMLs [1, 3]: 5 | Number of positive AMLs [rep. frequency] [1]: [33.3%]

PRR12
Number of positive AMLs ([1]; source protein (LiTAA)): 3 | rep. frequency ([1]; source protein (LiTAA)): [20.0%]

220 (KESPTSVGF; listed as Homo sapiens) [compound 220]
Number of positive AMLs [1, 3]: 1

92 (KLMAIPLVF; listed as Homo sapiens) [compound 92]
Number of positive AMLs [1, 3]: 1

PIK3R2 (SVVDLINHY)
Number of positive AMLs [1, 3]: 3 | Number of positive AMLs [rep. frequency] [1]: [20.0%]

284 (YTVEKREGY; listed as Homo sapiens) [compound 284]
Number of positive AMLs ([1]; HLA ligand (LiTAP)): 2

135 (DAVNQNTKLL; listed as Homo sapiens) [compound 135]
Number of positive AMLs [1, 3]: 1

55 (DRIEVVNML; listed as Homo sapiens) [compound 55]
Number of positive AMLs [1, 3]: 1

86 (KELEHLSHI; listed as Homo sapiens) [compound 86]
Number of positive AMLs [1, 3]: 1

ZNF264
Number of positive AMLs [1, 3]: 3 | Number of positive AMLs [rep. frequency] [1]: [20.0%]

149 (HEADKTYML; listed as Homo sapiens) [compound 149]
Number of positive AMLs [1, 3]: 1

28 (MKDLSLGGVL; listed as Homo sapiens) [compound 28]
Number of positive AMLs [1, 3]: 1

193 (KAGGEFLLRY; listed as Homo sapiens) [compound 193]
Number of positive AMLs [1, 3]: 1

ITGA5
Number of positive AMLs [1, 3]: 5 | Number of positive AMLs [rep. frequency] [1]: [33.3%]

150 (KFFEEVLLF; listed as Homo sapiens) [compound 150]
Number of positive AMLs [1, 3]: 1

125 (SQDKKIHVY; listed as Homo sapiens) [compound 125]
Number of positive AMLs [1, 3]: 1

ERLIN1: HLA ligand source protein identified exclusively in the FLT3-ITD subset (AVIEAEKIAQV)
representation in FLT3-ITD subset (positive/total) ([1]; FLT3-ITD AML n=8, HLA class I, identified exclusively in this subset): 4/8 | Number of positive AMLs [1, 3]: 4 | Number of positive AMLs [rep. frequency] [1]: [26.7%]

91 (GTEEAPKVFK; listed as Homo sapiens) [compound 91]
Number of positive AMLs [1, 3]: 1

GAA
Number of positive AMLs [1, 3]: 4 | Number of positive AMLs [rep. frequency] [1]: [26.7%]

215 (FAALHGPAL; listed as Homo sapiens) [compound 215]
Number of positive AMLs [1, 3]: 2

TMEM164
Number of positive AMLs [1, 3]: 4 | Number of positive AMLs [rep. frequency] [1]: [26.7%]

192 (AHVIDKFLL; listed as Homo sapiens) [compound 192]
Number of positive AMLs [1, 3]: 2

57 (IEDLKAQIL; listed as Homo sapiens) [compound 57]
Number of positive AMLs [1, 3]: 1

FNDC3B
Number of positive AMLs [1, 3]: 4 | Number of positive AMLs [rep. frequency] [1]: [26.7%]

PLXND1
Number of positive AMLs [1, 3]: 7 | Number of positive AMLs [rep. frequency] [1]: [46.7%]

65 (KVWPGSTAF; listed as Homo sapiens) [compound 65]
Number of positive AMLs [1, 3]: 1

126 (YHADIYDKV; listed as Homo sapiens) [compound 126]
Number of positive AMLs [1, 3]: 3

MARK3
Number of positive AMLs [1, 3]: 3 | Number of positive AMLs [rep. frequency] [1]: [20.0%]

UFD1L
Number of positive AMLs [1, 3]: 4 | Number of positive AMLs [rep. frequency] [1]: [26.7%]

C3AR1
Number of positive AMLs [1, 3]: 3 | Number of positive AMLs [rep. frequency] [1]: [20.0%]

ZNF543
Number of positive AMLs [1, 3]: 4 | Number of positive AMLs [rep. frequency] [1]: [26.7%]

EMILIN2
Number of positive AMLs [1, 3]: 4 | Number of positive AMLs [rep. frequency] [1]: [26.7%]

TTLL12
Number of positive AMLs [1, 3]: 3 | Number of positive AMLs [rep. frequency] [1]: [20.0%]

DGKZ
Number of positive AMLs [1, 3]: 5 | Number of positive AMLs [rep. frequency] [1]: [33.3%]

WDR45B
Number of positive AMLs [1, 3]: 4 | Number of positive AMLs [rep. frequency] [1]: [26.7%]

216 (RMANLMGIEF; listed as Homo sapiens) [compound 216]
Number of positive AMLs [1, 3]: 1

67 (RVYNTDPLKEK; listed as Homo sapiens) [compound 67]
Number of positive AMLs [1, 3]: 4

VCPIP1
Number of positive AMLs [1, 3]: 4 | Number of positive AMLs [rep. frequency] [1]: [26.7%]

CEP76 (VLGGKAFLEHL)
Number of positive AMLs ([1]; source protein (LiTAA)): 3 | rep. frequency ([1]; source protein (LiTAA)): [20.0%]

KIF20B
Number of positive AMLs [1, 3]: 4 | Number of positive AMLs [rep. frequency] [1]: [26.7%]

62 (ALLGHILLH; listed as Homo sapiens) [compound 62]
Number of positive AMLs [1, 3]: 1

DHX33
Number of positive AMLs ([1]; source protein (LiTAA)): 3 | rep. frequency ([1]; source protein (LiTAA)): [20.0%]

56 (IEAEKIAQV; listed as Homo sapiens) [compound 56]
Number of positive AMLs [1, 3]: 1

SHANK3
Number of positive AMLs [1, 3]: 4 | Number of positive AMLs [rep. frequency] [1]: [26.7%]

SORCS2
Number of positive AMLs ([1]; source protein (LiTAA)): 3 | rep. frequency ([1]; source protein (LiTAA)): [20.0%]

88 (VLLSTIHEL; listed as Homo sapiens) [compound 88]
Number of positive AMLs [1, 3]: 2

TARBP1
Number of positive AMLs [1, 3]: 3 | Number of positive AMLs [rep. frequency] [1]: [20.0%]
